Source: publication doi:10.1101/2023.10.03.560559
These are yes or no findings as the source states them, for the method shown. Binding seen in cells or lysates may run through a third protein. Some entries that bind do so weakly or less than the wild type. Sequences can lack the tags named with a protein.

Target: T1, FLAG-tagged RIG-I (UniProt O95786)
T1 sequence: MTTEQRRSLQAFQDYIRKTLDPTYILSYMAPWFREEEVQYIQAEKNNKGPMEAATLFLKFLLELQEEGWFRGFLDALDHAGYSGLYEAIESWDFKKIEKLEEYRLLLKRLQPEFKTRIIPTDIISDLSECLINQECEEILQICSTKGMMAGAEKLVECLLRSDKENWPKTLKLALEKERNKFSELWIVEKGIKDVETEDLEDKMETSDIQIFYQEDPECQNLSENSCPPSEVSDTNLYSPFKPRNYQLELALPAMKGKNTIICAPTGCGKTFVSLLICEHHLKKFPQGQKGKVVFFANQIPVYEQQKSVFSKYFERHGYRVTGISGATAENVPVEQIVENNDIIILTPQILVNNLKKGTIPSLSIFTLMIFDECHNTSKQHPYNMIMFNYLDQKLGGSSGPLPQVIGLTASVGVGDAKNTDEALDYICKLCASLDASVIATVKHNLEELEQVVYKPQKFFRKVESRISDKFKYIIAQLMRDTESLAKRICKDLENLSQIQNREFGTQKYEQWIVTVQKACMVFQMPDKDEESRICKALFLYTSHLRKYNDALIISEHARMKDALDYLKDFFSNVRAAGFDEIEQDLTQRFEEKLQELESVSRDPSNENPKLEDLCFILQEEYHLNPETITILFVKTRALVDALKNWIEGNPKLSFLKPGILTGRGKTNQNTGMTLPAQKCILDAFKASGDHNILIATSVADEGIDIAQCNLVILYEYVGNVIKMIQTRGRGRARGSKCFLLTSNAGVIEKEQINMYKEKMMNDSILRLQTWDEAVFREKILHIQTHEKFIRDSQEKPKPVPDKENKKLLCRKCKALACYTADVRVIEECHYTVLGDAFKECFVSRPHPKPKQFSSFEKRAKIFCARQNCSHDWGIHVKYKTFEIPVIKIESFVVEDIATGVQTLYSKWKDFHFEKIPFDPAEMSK
Experiment: co-IP

binding: binds
B1: WRNIP1 (WRN interacting protein 1) (protein, UniProt Q96S55-1 1-665)
chain: MEVSGPEDDPFLSQLHQVQCPVCQQMMPAAHINSHLDRCLLLHPAGHAEPAAGSHRAGERAKGPSPPGAKRRRLSESSALKQPATPTAAESSEGEGEEGDDGGETESRESYDAPPTPSGARLIPDFPVARSSSPGRKGSGKRPAAAAAAGSASPRSWDEAEAQEEEEAVGDGDGDGDADADGEDDPGHWDADAAEAATAFGASGGGRPHPRALAAEEIRQMLQGKPLADTMRPDTLQDYFGQSKAVGQDTLLRSLLETNEIPSLILWGPPGCGKTTLAHIIASNSKKHSIRFVTLSATNAKTNDVRDVIKQAQNEKSFFKRKTILFIDEIHRFNKSQQDTFLPHVECGTITLIGATTENPSFQVNAALLSRCRVIVLEKLPVEAMVTILMRAINSLGIHVLDSSRPTDPLSHSSNSSSEPAMFIEDKAVDTLAYLSDGDARAGLNGLQLAVLARLSSRKMFCKKSGQSYSPSRVLITENDVKEGLQRSHILYDRAGEEHYNCISALHKSMRGSDQNASLYWLARMLEGGEDPLYVARRLVRFASEDIGLADPSALTQAVAAYQGCHFIGMPECEVLLAQCVVYFARAPKSIEVYSAYNNVKACLRNHQGPLPPVPLHLRNAPTRLMKDLGYGKGYKYNPMYSEPVDQEYLPEELRGVDFFKQRRC
